Reference: PubChem BioAssay AID330 (DTP/NCI, 2004)
The list is a part of this screen's results and no random one: it is rich in T/C values a quarter to a half above the control, in often repeated tests (any T/C) and in doses without a T/C. Other doses and runs of a compound stand elsewhere. T/C: endpoint of the treated group in % of that of the vehicle group. Some entries give survivors of the animals treated and no T/C: the source holds a T/C of zero for them, seemingly a mark for toxic or unscored doses. Some survivor counts are full or nearly so, which does not show that the dose was tolerated: survival well below the control is almost never listed, so the zero probably covers shortened survival too. Counts of survivors are from the toxicity check (mostly the fifth day) where no day follows; animals may have died later. Schedule codes are those of the source, taken here to give the interval after Q, in days (D) or hours (H), and the number of doses after X. Marks such as (2×) say how often a value occurs here. For survival time, the PubChem record calls one and a half times the control and up active, and a quarter to a half above the control has no call in these data; cut-offs in other NCI protocols can differ. Some T/C values are followed by the survivors on the day toxicity was checked, most often the fifth; without a count, all were alive then. Some doses were run more than once; the values are given in rising order.

Tested on: P388 leukemia ip, CD2F1 mice, survival T/C
Assay: NCI In Vivo Anticancer Drug Screen. Data for tumor model P388 Leukemia (intraperitoneal) in CD2F1 (CDF1) mice
Settings: T/C endpoint: median survival time, higher T/C = longer survival
[1] = dose: 400.0 mg/kg/injection, schedule: Q01DX001 (ip), vehicle: Klucel (hydroxypropylcellulose) (HPC)
[2] = dose: 50.0 mg/kg/injection, schedule: Q01DX009 (ip), vehicle: saline
[3] = dose: 100.0 mg/kg/injection, schedule: Q01DX009 (ip), vehicle: saline
[4] = dose: 200.0 mg/kg/injection, schedule: Q01DX009 (ip), vehicle: saline
[5] = dose: 240.0 mg/kg/injection, schedule: Q01DX005 (ip), vehicle: Klucel (hydroxypropylcellulose) (HPC)
[6] = dose: 200.0 mg/kg/injection, schedule: Q01DX009 (ip), vehicle: saline with Tween-80
[7] = dose: 400.0 mg/kg/injection, schedule: Q01DX009 (ip), vehicle: saline with Tween-80
[8] = dose: 200.0 mg/kg/injection, schedule: Q01DX005 (ip), vehicle: saline
[9] = dose: 200.0 mg/kg/injection, schedule: Q01DX005 (ip), vehicle: saline with Tween-80
[10] = dose: 100.0 mg/kg/injection, schedule: Q01DX009 (ip), vehicle: saline with Tween-80

`c1ccc(Cn2cccc/c2=N/C(=NC2CCCCC2)NC2CCCCC2)cc1` was tested, and the survivor count (dose: 12.5 mg/kg/injection, schedule: Q01DX001 (ip), vehicle: Klucel (hydroxypropylcellulose) (HPC)) was 6 of 6, the survivor count (dose: 50.0 mg/kg/injection, schedule: Q01DX001 (ip), vehicle: Klucel (hydroxypropylcellulose) (HPC)) was 1 of 6 and the survivor count (dose: 100.0 mg/kg/injection, schedule: Q01DX001 (ip), vehicle: Klucel (hydroxypropylcellulose) (HPC)) was 3 of 6. The survivor count (dose: 200.0 mg/kg/injection, schedule: Q01DX001 (ip), vehicle: Klucel (hydroxypropylcellulose) (HPC)) was 1 of 6 and the survivor count [1] was 0 of 6.
For `C/C=C/[P+](c1ccccc1)(c1ccccc1)c1ccccc1`, the T/C (dose: 6.25 mg/kg/injection, schedule: Q01DX009 (ip), vehicle: saline) was 148 % of control, the T/C (dose: 12.5 mg/kg/injection, schedule: Q01DX009 (ip), vehicle: saline) was 138 % of control and the survivor count (dose: 25.0 mg/kg/injection, schedule: Q01DX009 (ip), vehicle: saline) was 0 of 6. The survivor count [2] was 0 of 6, the survivor count [3] was 0 of 6 and the survivor count [4] was 0 of 6.
In the case of `CN(C)C1=NC(N(C)C)=C2C=CC=C12`, the survivor count (dose: 60.0 mg/kg/injection, schedule: Q01DX005 (ip), vehicle: Klucel (hydroxypropylcellulose) (HPC)) was 6 of 6, the survivor count (dose: 120.0 mg/kg/injection, schedule: Q01DX005 (ip), vehicle: Klucel (hydroxypropylcellulose) (HPC)) was 4 of 6 and the survivor count [5] was 0 of 6.
With `COc1cc(OC)c(C(=O)CCl)c(O)c1Cl` the T/C (dose: 50.0 mg/kg/injection, schedule: Q01DX009 (ip), vehicle: saline with Tween-80) was 127 % of control, the T/C (dose: 100.0 mg/kg/injection, schedule: Q01DX009 (ip), vehicle: saline with Tween-80, evaluated on day 20) was 140 % of control and the T/C (dose: 100.0 mg/kg/injection, schedule: Q01DX009 (ip), vehicle: saline with Tween-80, evaluated on day 30) was 130 % of control. The survivor count (dose: 150.0 mg/kg/injection, schedule: Q01DX009 (ip), vehicle: saline with Tween-80) was 3 of 6.
`NC(Cc1ccccc1)C(=O)NC(Cc1ccccc1)C(=O)O` (configuration not stated) was tested, and the survivor count (dose: 400.0 mg/kg/injection, schedule: Q01DX009 (ip), vehicle: saline) was 4 of 6.
`C=CC12COC(=O)CC1CCC(=O)C2` (configuration not stated) was tested, and the survivor count (dose: 400.0 mg/kg/injection, schedule: Q04DX003 (ip), vehicle: Klucel (hydroxypropylcellulose) (HPC)) was 1 of 6.
With `O=C(/C=C/c1ccc(OCc2ccccc2)cc1)c1ccccc1Cl` the survivor count [6] was 6 of 6 and the survivor count [7] was 6 of 6.
With `CCCCCCCCCCCCCCCC[N+](C)(C)CC(=O)O` the survivor count (dose: 45.0 mg/kg/injection, schedule: Q01DX009 (ip), vehicle: saline with Tween-80) was 6 of 6, the survivor count (dose: 90.0 mg/kg/injection, schedule: Q01DX009 (ip), vehicle: saline with Tween-80) was 5 of 6 and the survivor count (dose: 180.0 mg/kg/injection, schedule: Q01DX009 (ip), vehicle: saline with Tween-80) was 0 of 6.
With `Cc1nc2oc(=O)cc(C)c2c(=O)[nH]1` the survivor count [5] was 0 of 6.
For `CC(=O)OCC#CCN1CCCCCC1`, the survivor count [8] was 0 of 6.
With `CC1CCCCN1C=C1C(=O)OC(C)(C)OC1=O` (configuration not stated) the survivor count [5] was 2 of 6.
In the case of `CS1=C2C(=O)CCCC2=Nc2ccccc21` (configuration not stated), the survivor count [8] was 0 of 6.
With `C/C(=N\NC(=S)N(C)C)c1ncc[nH]1` the T/C [9] was 127 % of control.
In the case of `O=C1CC2(CCCC2)CC(=O)N1c1ccc(-c2ccc(N3C(=O)CC4(CCCC4)CC3=O)cc2)cc1`, the survivor count (dose: 200.0 mg/kg/injection, schedule: Q01DX009 (ip), vehicle: Klucel (hydroxypropylcellulose) (HPC)) was 6 of 6.
With `COC(=O)c1cc(-c2ccccc2)[nH]c(=O)c1C#N` the survivor count (dose: 240.0 mg/kg/injection, schedule: Q01DX005 (ip), vehicle: saline) was 0 of 6.
In the case of `C=C(C)C(=O)OC1C/C(CO)=C\C(O)C/C(C)=C/C2OC(=O)C(=C)C21` (configuration not stated), the T/C (dose: 5.0 mg/kg/injection, schedule: Q01DX009 (ip), vehicle: saline + alcohol) was 141 % of control, the T/C (dose: 10.0 mg/kg/injection, schedule: Q01DX009 (ip), vehicle: saline + alcohol) was 132 % of control and the survivor count (dose: 40.0 mg/kg/injection, schedule: Q01DX009 (ip), vehicle: saline + alcohol) was 3 of 6.
In the case of `Clc1cccc(/C=C/c2ccnnc2)c1`, the survivor count [2] was 6 of 6.
For `Cn1c(=O)ccc2c1nc1ccccc1[n+]2[O-]`, the survivor count (dose: 240.0 mg/kg/injection, schedule: Q01DX005 (ip), vehicle: saline with Tween-80) was 0 of 6.
With `O=C1c2cccc(NCCCNCCO)c2C(=O)c2cccc(NCCCNCCO)c21` the T/C (dose: 3.12 mg/kg/injection, schedule: Q01DX005 (ip), vehicle: saline with Tween-80) was 133 % of control, the T/C (dose: 6.25 mg/kg/injection, schedule: Q01DX005 (ip), vehicle: acid diluted with saline) was 128 % of control [5 of 6 alive] and the T/C (dose: 6.25 mg/kg/injection, schedule: Q01DX005 (ip), vehicle: saline with Tween-80) was 140 % of control. For the same molecule, the T/C (dose: 12.5 mg/kg/injection, schedule: Q01DX005 (ip), vehicle: acid diluted with saline) was 133 % of control, the T/C (dose: 12.5 mg/kg/injection, schedule: Q01DX005 (ip), vehicle: saline with Tween-80) was 133 % of control and the T/C (dose: 25.0 mg/kg/injection, schedule: Q01DX005 (ip), vehicle: acid diluted with saline) was 125 % of control. For the same molecule, the T/C (dose: 25.0 mg/kg/injection, schedule: Q01DX005 (ip), vehicle: saline with Tween-80) was 125 % of control, the survivor count (dose: 50.0 mg/kg/injection, schedule: Q01DX005 (ip), vehicle: acid diluted with saline) was 3 of 6 and the T/C (dose: 50.0 mg/kg/injection, schedule: Q01DX005 (ip), vehicle: saline with Tween-80) was 133 % of control. For the same molecule, the survivor count (dose: 100.0 mg/kg/injection, schedule: Q01DX005 (ip), vehicle: acid diluted with saline) was 0 of 6, the survivor count (dose: 100.0 mg/kg/injection, schedule: Q04DX002 (ip), vehicle: distilled water + Tween-80) was 2 of 5 and the survivor count (dose: 200.0 mg/kg/injection, schedule: Q04DX002 (ip), vehicle: distilled water + Tween-80) was 0 of 5. For the same molecule, the survivor count (dose: 400.0 mg/kg/injection, schedule: Q04DX002 (ip), vehicle: distilled water + Tween-80) was 0 of 5.
With `CCO/C=C1\SC(=S)N(c2ccccc2OC)C1=O` the T/C [10] was 135 % of control, the T/C [6] was 135 % of control and the survivor count (dose: 300.0 mg/kg/injection, schedule: Q01DX009 (ip), vehicle: saline with Tween-80) was 6 of 6. The survivor count [7] was 5 of 6 and the T/C (dose: 400.0 mg/kg/injection, schedule: Q04DX003 (ip), vehicle: saline with Tween-80) was 127 % of control.
`CN(C)CCC(c1ccccc1)C(CO)c1ccccc1` (configuration not stated) was tested, and the survivor count [1] was 1 of 6.
`COc1cccc(OC)c1C(c1c(OC)cccc1OC)c1c(OC)cccc1OC` was tested, and the T/C (dose: 50.0 mg/kg/injection, schedule: Q04DX003 (ip), vehicle: saline with Tween-80) was 127 % of control.
In the case of `CCn1c2ccc(C(=O)CCCN3CCCCC3)cc2c2cc(C(=O)CCCN3CCCCC3)ccc21`, the T/C [2] was 91 [4 of 6 alive] and 98 % of control, the survivor count [2] was 6 of 6 (2×) and the survivor count [3] was 0 of 6. The survivor count [4] was 0 of 6.
In the case of `O=c1[nH]c(O)c(N=Nc2ccc([N+](=O)[O-])cc2[N+](=O)[O-])c(=O)[nH]1`, the T/C [10] was 125 % of control.
For `CC1(C)C2CCC1(CS(=O)O)C(=O)C2.[Ag]` (configuration not stated), the survivor count [9] was 0 of 6.
With `S=C(Nc1ccc(Cl)cc1)SSC(Cl)(Cl)Cl` the survivor count (dose: 100.0 mg/kg/injection, schedule: Q01DX009 (ip), vehicle: saline + alcohol) was 6 of 6 and the survivor count (dose: 200.0 mg/kg/injection, schedule: Q01DX009 (ip), vehicle: saline + alcohol) was 0 of 6.
In the case of `COc1ccc(-c2nc(SCC(=O)O)n(-c3ccccn3)c2-c2ccc(OC)cc2)cc1`, the survivor count (dose: 400.0 mg/kg/injection, schedule: Q01DX001 (ip), vehicle: water) was 4 of 6.
In the case of `O=C1c2ccccc2C(=O)C1c1cc(Cl)c(O)c(Cl)c1`, the T/C (dose: 400.0 mg/kg/injection, schedule: Q04DX002 (ip), vehicle: saline) was 127 % of control [5 of 6 alive].
